# Test results as given in the supplement of paper PMC10849652.
# Chains of the proteins cited; added tags and fusions are not shown. Lines headed by an entry give the natural chain unless they say otherwise; changes in a name come on top.
# UniProt O95197: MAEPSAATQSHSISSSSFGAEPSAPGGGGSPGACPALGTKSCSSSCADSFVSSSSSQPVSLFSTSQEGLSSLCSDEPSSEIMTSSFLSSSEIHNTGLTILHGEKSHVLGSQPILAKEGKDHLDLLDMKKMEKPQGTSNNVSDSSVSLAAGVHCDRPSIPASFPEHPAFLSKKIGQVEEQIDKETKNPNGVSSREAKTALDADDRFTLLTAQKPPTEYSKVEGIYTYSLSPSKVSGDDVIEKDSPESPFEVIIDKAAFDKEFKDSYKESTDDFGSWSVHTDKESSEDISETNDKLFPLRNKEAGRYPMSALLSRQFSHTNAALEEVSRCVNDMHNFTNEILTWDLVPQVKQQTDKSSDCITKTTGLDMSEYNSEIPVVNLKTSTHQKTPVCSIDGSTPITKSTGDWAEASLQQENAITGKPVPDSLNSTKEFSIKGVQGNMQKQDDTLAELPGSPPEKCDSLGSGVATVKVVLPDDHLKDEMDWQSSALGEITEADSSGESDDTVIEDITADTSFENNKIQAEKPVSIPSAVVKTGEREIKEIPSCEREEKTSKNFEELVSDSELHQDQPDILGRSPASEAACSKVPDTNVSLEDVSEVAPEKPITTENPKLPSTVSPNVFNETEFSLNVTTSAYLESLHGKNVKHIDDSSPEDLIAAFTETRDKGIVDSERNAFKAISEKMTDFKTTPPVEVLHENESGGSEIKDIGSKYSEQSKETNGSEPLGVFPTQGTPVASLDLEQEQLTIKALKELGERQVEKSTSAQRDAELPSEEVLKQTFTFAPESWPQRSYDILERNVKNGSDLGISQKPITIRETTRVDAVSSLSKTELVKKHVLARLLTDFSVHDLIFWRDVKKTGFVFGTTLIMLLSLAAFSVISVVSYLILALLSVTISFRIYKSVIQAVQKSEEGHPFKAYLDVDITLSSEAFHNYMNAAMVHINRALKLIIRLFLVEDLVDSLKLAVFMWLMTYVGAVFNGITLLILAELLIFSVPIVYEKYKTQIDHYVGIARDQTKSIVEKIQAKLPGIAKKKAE
# UniProt O00442: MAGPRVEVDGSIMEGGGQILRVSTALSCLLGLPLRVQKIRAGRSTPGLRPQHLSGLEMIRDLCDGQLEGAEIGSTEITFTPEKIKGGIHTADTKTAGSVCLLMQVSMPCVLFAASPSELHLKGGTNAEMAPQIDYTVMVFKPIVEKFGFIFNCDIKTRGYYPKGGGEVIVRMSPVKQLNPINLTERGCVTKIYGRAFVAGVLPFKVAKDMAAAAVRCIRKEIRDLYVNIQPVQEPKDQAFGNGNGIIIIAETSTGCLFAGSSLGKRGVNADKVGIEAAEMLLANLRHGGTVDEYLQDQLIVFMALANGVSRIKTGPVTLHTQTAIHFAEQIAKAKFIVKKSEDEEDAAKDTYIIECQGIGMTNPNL
# UniProt Q92622: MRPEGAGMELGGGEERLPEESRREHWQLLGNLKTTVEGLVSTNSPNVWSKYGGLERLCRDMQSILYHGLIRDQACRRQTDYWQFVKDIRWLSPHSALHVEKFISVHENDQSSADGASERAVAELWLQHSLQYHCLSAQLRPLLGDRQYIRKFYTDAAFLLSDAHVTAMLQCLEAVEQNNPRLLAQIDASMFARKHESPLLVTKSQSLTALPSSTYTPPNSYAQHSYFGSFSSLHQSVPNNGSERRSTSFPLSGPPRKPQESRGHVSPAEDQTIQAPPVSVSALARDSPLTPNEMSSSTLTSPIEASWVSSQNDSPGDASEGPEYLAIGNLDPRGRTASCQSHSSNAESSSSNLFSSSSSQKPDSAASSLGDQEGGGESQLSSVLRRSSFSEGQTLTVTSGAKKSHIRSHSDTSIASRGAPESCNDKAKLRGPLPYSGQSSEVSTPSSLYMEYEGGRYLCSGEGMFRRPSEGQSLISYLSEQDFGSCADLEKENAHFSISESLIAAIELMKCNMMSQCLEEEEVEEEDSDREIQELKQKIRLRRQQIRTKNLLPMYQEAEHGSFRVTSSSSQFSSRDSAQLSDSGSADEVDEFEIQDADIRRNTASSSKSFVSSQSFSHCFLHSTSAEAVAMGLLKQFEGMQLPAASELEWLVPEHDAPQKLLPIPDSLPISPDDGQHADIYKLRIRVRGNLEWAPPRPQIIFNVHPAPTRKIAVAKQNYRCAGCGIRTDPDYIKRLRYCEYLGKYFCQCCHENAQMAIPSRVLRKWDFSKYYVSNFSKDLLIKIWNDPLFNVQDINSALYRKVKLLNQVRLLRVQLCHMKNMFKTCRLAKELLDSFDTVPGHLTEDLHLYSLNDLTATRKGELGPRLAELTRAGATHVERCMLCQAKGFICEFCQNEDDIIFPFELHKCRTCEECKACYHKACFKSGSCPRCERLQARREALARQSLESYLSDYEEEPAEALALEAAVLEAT
# UniProt Q7LG56, whole entry, looked up: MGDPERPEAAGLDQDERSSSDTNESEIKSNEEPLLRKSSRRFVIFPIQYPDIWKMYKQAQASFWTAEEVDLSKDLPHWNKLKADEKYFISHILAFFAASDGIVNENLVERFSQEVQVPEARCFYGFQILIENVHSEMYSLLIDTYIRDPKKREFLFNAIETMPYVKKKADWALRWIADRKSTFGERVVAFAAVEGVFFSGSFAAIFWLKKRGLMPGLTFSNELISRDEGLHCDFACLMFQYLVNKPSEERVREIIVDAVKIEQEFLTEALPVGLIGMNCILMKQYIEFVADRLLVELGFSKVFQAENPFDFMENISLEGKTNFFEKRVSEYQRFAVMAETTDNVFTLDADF
# UniProt Q9NQC3: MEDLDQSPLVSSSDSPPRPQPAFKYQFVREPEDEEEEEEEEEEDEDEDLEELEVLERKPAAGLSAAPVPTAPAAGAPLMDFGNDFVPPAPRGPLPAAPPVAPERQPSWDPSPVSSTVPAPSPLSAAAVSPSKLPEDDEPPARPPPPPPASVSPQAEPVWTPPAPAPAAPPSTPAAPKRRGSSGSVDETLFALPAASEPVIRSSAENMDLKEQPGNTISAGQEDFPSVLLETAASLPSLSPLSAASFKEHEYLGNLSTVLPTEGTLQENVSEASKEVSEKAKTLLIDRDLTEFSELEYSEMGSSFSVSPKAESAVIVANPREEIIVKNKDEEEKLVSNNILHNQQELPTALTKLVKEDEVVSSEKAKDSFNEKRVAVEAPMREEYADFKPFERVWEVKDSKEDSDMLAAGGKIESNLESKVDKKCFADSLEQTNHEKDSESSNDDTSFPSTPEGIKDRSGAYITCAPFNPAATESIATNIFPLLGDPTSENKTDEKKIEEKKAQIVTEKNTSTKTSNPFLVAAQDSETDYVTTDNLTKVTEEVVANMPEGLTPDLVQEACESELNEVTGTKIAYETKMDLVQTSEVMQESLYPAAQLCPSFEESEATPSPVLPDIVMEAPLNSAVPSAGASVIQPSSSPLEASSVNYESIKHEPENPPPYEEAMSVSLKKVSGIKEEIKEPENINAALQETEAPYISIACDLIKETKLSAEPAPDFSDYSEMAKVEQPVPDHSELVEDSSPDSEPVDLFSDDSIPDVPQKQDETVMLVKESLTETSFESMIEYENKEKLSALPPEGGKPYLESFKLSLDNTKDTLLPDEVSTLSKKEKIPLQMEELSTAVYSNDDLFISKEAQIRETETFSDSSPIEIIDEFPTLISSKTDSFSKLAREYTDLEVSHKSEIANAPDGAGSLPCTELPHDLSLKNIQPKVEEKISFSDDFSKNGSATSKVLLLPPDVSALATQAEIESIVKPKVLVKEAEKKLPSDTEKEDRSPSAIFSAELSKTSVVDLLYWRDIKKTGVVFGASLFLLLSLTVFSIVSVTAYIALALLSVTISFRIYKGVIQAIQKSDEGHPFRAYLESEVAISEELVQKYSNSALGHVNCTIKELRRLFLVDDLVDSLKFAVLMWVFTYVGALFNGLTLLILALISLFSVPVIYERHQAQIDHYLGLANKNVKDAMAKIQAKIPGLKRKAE
# UniProt Q8N5L8: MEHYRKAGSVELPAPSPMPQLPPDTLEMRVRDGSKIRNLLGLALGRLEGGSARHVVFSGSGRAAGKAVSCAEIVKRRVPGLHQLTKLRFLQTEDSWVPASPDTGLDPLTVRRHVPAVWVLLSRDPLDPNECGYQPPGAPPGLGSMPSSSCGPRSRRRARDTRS
# UniProt Q15418, whole entry, looked up: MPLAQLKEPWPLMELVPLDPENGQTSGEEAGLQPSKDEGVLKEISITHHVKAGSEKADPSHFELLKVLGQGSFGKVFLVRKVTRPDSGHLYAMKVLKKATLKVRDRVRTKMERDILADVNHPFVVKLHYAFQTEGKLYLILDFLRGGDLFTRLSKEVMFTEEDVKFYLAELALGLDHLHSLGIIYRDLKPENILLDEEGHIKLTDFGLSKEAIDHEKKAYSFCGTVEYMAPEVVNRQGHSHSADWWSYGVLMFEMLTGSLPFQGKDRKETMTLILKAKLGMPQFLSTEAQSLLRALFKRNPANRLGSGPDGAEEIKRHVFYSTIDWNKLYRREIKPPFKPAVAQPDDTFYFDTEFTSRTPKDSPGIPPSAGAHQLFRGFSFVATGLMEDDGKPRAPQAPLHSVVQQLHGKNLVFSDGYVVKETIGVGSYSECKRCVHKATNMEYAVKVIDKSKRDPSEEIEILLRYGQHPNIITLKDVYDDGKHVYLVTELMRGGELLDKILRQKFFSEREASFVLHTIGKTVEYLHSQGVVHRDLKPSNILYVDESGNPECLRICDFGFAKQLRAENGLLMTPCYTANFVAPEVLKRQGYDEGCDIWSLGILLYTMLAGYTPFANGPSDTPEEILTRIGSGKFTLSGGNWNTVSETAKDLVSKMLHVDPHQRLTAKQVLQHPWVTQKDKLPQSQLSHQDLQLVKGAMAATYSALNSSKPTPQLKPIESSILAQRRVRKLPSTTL
# UniProt Q01196, whole entry, looked up: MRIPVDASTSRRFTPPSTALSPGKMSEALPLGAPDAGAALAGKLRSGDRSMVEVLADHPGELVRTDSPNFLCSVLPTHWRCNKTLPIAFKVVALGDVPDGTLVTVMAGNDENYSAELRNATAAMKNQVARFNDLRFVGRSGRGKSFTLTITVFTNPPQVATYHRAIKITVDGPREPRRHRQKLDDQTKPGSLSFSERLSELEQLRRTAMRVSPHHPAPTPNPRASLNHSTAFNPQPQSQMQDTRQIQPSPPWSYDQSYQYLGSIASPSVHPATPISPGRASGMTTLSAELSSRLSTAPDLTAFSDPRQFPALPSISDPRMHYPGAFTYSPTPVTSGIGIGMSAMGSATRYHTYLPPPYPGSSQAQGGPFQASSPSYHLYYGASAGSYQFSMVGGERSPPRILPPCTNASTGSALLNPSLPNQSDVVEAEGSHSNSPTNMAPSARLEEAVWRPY
# UniProt Q8N122, whole entry, looked up: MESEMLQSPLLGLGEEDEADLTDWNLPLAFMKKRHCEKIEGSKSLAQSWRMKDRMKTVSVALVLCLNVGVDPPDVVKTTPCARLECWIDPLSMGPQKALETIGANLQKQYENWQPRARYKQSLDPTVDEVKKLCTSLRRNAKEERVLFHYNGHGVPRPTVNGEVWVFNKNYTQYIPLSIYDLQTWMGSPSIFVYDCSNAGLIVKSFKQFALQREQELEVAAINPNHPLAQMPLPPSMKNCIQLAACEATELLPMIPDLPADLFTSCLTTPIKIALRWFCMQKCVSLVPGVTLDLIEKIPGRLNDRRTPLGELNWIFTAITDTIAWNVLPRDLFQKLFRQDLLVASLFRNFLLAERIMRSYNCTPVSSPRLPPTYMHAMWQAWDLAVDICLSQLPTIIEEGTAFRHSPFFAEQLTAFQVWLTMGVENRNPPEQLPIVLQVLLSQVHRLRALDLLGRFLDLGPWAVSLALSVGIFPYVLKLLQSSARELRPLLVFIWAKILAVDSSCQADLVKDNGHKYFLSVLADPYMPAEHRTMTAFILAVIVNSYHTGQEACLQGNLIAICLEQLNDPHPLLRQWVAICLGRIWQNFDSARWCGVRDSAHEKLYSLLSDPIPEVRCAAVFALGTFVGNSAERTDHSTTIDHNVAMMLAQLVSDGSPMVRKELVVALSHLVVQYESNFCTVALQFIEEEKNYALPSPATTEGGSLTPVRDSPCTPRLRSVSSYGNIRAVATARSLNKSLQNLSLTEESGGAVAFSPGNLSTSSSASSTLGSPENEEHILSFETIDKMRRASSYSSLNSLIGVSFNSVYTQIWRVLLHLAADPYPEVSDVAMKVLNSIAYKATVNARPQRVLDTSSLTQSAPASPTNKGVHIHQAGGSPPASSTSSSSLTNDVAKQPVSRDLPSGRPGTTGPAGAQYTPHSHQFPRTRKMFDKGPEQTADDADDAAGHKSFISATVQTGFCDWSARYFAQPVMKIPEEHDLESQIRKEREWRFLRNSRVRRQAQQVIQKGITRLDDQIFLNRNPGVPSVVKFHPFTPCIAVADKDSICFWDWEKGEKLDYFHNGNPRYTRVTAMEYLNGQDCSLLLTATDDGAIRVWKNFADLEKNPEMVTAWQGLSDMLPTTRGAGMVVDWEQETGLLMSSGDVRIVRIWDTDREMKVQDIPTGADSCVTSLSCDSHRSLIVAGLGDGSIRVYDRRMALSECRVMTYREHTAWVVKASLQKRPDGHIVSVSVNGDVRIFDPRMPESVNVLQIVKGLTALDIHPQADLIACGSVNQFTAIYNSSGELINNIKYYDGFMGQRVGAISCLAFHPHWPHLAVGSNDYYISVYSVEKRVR
# Some of the results follow.
# Legend:
# Assay in all cases: log2 fold change, soluble protein after heating vs DMSO (PISA); higher = thermal stabilisation; K562 lysate, 10 uM; active = over 0.2 and 3.5 SD of the protein, either way, in both replicates (recomputed)
# erlotinib = compound: C#Cc1cccc(Nc2ncnc3cc(OCCOC)c(OCCOC)cc23)c1 [erlotinib]
# Summary of the method: (§1)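 K562 pellets were dounce-homogenised in PBS pH 7.4 containing 1 mM MgCl2, and the crude extract, at 1 mg/mL protein, was exposed to 10 μM compound for 30 min. Aliquots were heated for 3 min across 48°C-58°C, pooled, brought to 0.5% NP-40 at 4°C and spun at 21,000xg for 90 min, with the supernatant taken as soluble protein. TMTpro 16plex LC-MS/MS with equalised channel sums quantified that protein. Values are log-two fold changes in thermal stability relative to solvent controls, taken from duplicates.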
# [1] = compound: C/C(=N\NC(=O)C1=CC(=CC=C1)S(=O)(=O)N2CCOCC2)/C3=C(C=CC(=C3)Cl)O
# Summary of the method: as §1
# [2] = compound: C1=CC(=CC=C1C2=NC3=C(N2)C=C(C=C3)C(=O)N)OC4=CC=C(C=C4)Cl
# Summary of the method: as §1
# [3] = compound: C1=CC2=C(C=CC(=C2)/C=C\3/C(=O)NC(=NCC4=CC=CS4)S3)N=C1
# Summary of the method: as §1
# [4] = compound: C1=CC2=NC=CN=C2C=C1/C=C/3\C(=O)NC(=O)S3
# Summary of the method: as §1
# [5] = compound: C1=CC=C(C=C1)C2=NC(=C(N2)C3=CC=NC=C3)C4=CC(=C(C=C4)Cl)O
# Summary of the method: as §1
# [6] = compound: C1=CC=C2C(=C1)C3=NNC4=CC=CC(=C43)C2=O
# Summary of the method: as §1
# [7] = compound: C1CCN(C1)C(=O)NC2=CC=CC(=C2)NC3=NC=C(C(=N3)NCCC4=CN=CN4)Br
# Summary of the method: as §1
# [8] = compound: C1CN(CCC1(CC2=CC=C(C=C2)Cl)N)C3=NC=NC4=C3C=CN4
# Summary of the method: as §1
# IRAK-1-4 Inhibitor I = compound: C1COCCN1CCN2C3=CC=CC=C3N=C2NC(=O)C4=CC(=CC=C4)[N+](=O)[O-] [IRAK-1-4 Inhibitor I]
# Summary of the method: as §1
Target,log2 fold change (erlotinib),log2 fold change [1],log2 fold change [2],log2 fold change [3],log2 fold change [4],log2 fold change [5],log2 fold change [6],log2 fold change [7],log2 fold change [8],log2 fold change (IRAK-1-4 Inhibitor I)
RTN3 isoform 5 (UniProt O95197),inactive: 0.132,inactive: 0.102,inactive: -0.142,inactive: -0.013,inactive: 0.03,inactive: -0.021,inactive: 0.002,inactive: 0.014,inactive: -0.029,inactive: 0.153
RTCA (UniProt O00442),inactive: -0.026,inactive: 0.007,inactive: 0.034,inactive: -0.026,inactive: -0.006,inactive: 0.021,inactive: -0.013,inactive: -0.026,inactive: 0,inactive: 0.015
RPS27 (UniProt P42677),inactive: 0.043,inactive: 0.108,inactive: -0.059,inactive: -0.05,inactive: -0.035,inactive: -0.008,inactive: -0.046,inactive: 0.079,inactive: 0.045,inactive: 0.115
RRM1 (UniProt P23921),inactive: 0.018,inactive: -0.019,inactive: 0.007,inactive: 0.025,inactive: 0.029,inactive: -0.01,inactive: -0.043,inactive: -0.046,inactive: -0.022,inactive: 0.021
RRP12 (UniProt Q5JTH9),inactive: 0.064,inactive: -0.012,inactive: -0.049,inactive: 0.016,inactive: -0.022,inactive: 0.037,inactive: 0.084,inactive: -0.008,inactive: 0.017,inactive: 0.014
RUBCN (UniProt Q92622),inactive: 0.157,inactive: 0.094,inactive: -0.126,inactive: -0.116,inactive: -0.038,inactive: -0.027,inactive: -0.04,inactive: 0.009,inactive: -0.054,inactive: 0.005
RPS29 (UniProt P62273),inactive: 0.088,inactive: 0.023,inactive: 0.018,inactive: -0.064,inactive: -0.026,inactive: 0.017,inactive: 0.051,inactive: 0.018,inactive: -0.037,inactive: 0.046
RRM2B isoform 6 (UniProt Q7LG56),inactive: -0.029,inactive: 0.002,inactive: -0.019,inactive: -0.006,inactive: 0,inactive: 0.014,inactive: -0.01,inactive: -0.045,inactive: -0.001,inactive: 0.003
RTTN (UniProt Q86VV8),inactive: -0.002,inactive: -0.196,inactive: -0.123,inactive: -0.103,inactive: 0.045,inactive: -0.043,inactive: -0.056,inactive: 0.14,inactive: 0.036,inactive: 0.098
RPP30 isoform 2 (UniProt P78346),inactive: -0.008,inactive: -0.025,inactive: 0.046,inactive: -0.031,inactive: -0.023,inactive: -0.013,inactive: -0.057,inactive: 0.014,inactive: 0.029,inactive: 0.011
RTN4 (UniProt Q9NQC3),inactive: -0.007,inactive: 0.034,inactive: -0.004,inactive: 0.008,inactive: 0.008,inactive: 0.023,inactive: -0.011,inactive: -0.019,inactive: 0.019,inactive: 0.04
RPP25L (UniProt Q8N5L8),inactive: 0.021,inactive: -0.051,inactive: 0.017,inactive: -0.023,inactive: 0.019,inactive: 0.063,inactive: -0.01,inactive: 0.082,inactive: 0.011,inactive: 0.113
RPS10 (UniProt P46783),inactive: -0.029,inactive: 0.033,inactive: -0.005,inactive: -0.012,inactive: -0.038,inactive: 0.006,inactive: -0.043,inactive: -0.004,inactive: 0.018,inactive: 0.008
RPS6KA1 (UniProt Q15418),inactive: 0.001,inactive: -0.064,inactive: 0.006,inactive: -0.029,inactive: 0.04,inactive: 0.13,active: 0.509,inactive: -0.009,inactive: 0.06,inactive: -0.036
RPS24 isoform 4 (UniProt P62847),inactive: -0.01,inactive: 0.017,inactive: 0.03,inactive: -0.015,inactive: -0.026,inactive: 0.012,inactive: -0.015,inactive: -0.017,inactive: -0.001,inactive: -0.016
RPL37 (UniProt P61927),inactive: -0.078,inactive: -0.032,inactive: -0.063,inactive: 0.021,inactive: 0.006,inactive: 0.005,inactive: 0.007,inactive: -0.013,inactive: -0.027,inactive: 0.039
RPL4 (UniProt P36578),inactive: -0.005,inactive: -0.257,inactive: -0.009,inactive: -0.012,inactive: -0.017,inactive: 0.018,inactive: 0.036,inactive: 0.051,inactive: -0.02,inactive: -0.008
RPLP0P6 (UniProt Q8NHW5),inactive: -0.003,inactive: -0.069,inactive: -0.034,inactive: 0.026,inactive: -0.05,inactive: 0.009,inactive: 0.03,inactive: 0.024,inactive: 0.004,inactive: 0.008
RPL7L1 (UniProt Q6DKI1),inactive: -0.067,inactive: -0.025,inactive: -0.017,inactive: -0.022,inactive: 0.022,inactive: 0.054,inactive: 0.017,inactive: -0.025,inactive: 0.022,inactive: -0.015
RPLP2 (UniProt P05387),inactive: -0.008,inactive: -0.032,inactive: -0.038,inactive: 0.03,inactive: 0.025,inactive: 0.028,inactive: -0.012,inactive: 0.047,inactive: 0.002,inactive: 0.004
RPS25 (UniProt P62851),inactive: -0.008,inactive: -0.048,inactive: -0.035,inactive: -0.041,inactive: -0.047,inactive: 0.011,inactive: 0.01,inactive: 0.031,inactive: 0.026,inactive: 0.009
RUNX1 isoform 8 (UniProt Q01196),inactive: -0.059,inactive: -0.13,inactive: -0.008,inactive: 0.053,inactive: 0.043,inactive: -0.115,inactive: 0.011,inactive: 0.063,inactive: -0.024,inactive: 0.045
RPS6 (UniProt P62753),inactive: -0.033,inactive: -0.034,inactive: -0.045,inactive: 0.003,inactive: -0.004,inactive: -0.01,inactive: -0.015,inactive: 0.014,inactive: -0.024,inactive: 0.006
RPS19 (UniProt P39019),inactive: -0.017,inactive: -0.002,inactive: -0.016,inactive: -0.04,inactive: -0.004,inactive: -0.006,inactive: 0.025,inactive: 0.007,inactive: -0.015,inactive: -0.01
RPS18 (UniProt P62269),inactive: -0.021,inactive: -0.088,inactive: -0.007,inactive: -0.006,inactive: -0.004,inactive: -0.012,inactive: -0.007,inactive: 0.005,inactive: 0.004,inactive: 0.047
RPTOR (UniProt Q8N122),inactive: 0.032,inactive: 0.002,inactive: 0.062,inactive: 0.013,inactive: 0.017,inactive: -0.002,inactive: -0.002,inactive: -0.036,inactive: -0.015,inactive: 0.003
RPL7 (UniProt P18124),inactive: 0.003,inactive: 0.004,inactive: 0.002,inactive: -0.003,inactive: -0.005,inactive: 0.009,inactive: 0.033,inactive: 0.05,inactive: -0.004,inactive: 0.008
RPL5 (UniProt P46777),inactive: -0.005,inactive: 0.025,inactive: 0.004,inactive: 0.008,inactive: -0.004,inactive: -0.001,inactive: -0.03,inactive: 0.014,inactive: -0.012,inactive: 0
RPS11 (UniProt P62280),inactive: -0.016,inactive: -0.036,inactive: 0.001,inactive: 0.001,inactive: -0.027,inactive: 0.011,inactive: 0.004,inactive: -0.024,inactive: -0.036,inactive: -0.006

# In a second layout: entries from further up
Target	log2 fold change (erlotinib)	log2 fold change [1]	log2 fold change [2]	log2 fold change [3]	log2 fold change [4]	log2 fold change [5]	log2 fold change [6]	log2 fold change [7]	log2 fold change [8]	log2 fold change (IRAK-1-4 Inhibitor I)
RTTN (UniProt Q86VV8)	inactive: -0.002	inactive: -0.196	inactive: -0.123	inactive: -0.103	inactive: 0.045	inactive: -0.043	inactive: -0.056	inactive: 0.14	inactive: 0.036	inactive: 0.098
RPS18 (UniProt P62269)	inactive: -0.021	inactive: -0.088	inactive: -0.007	inactive: -0.006	inactive: -0.004	inactive: -0.012	inactive: -0.007	inactive: 0.005	inactive: 0.004	inactive: 0.047
